# In PubChem BioAssay (EPA / NIEHS):
# Values joined by “and” are separate entries in the source; they are usually repeats but may differ in a detail not shown here. Identical values can stand only once. The shares of active, inactive and inconclusive entries below differ from those in the screen. Potencies beside an inconclusive call are fits to weak or partial responses and may not hold up. More than one record can exist for a structure, and the calls need not agree. Active and inactive are the calls of the source. How the source made its calls: active means hit-call score of the fitted dose curve at least 0.9, where 1 is the maximum; inconclusive means response in the unintended direction; inactive means score below 0.9.
# Assay: CCTE_Shafer_MEA_acute_AB: CCTE's Alamar Blue Assay for Cytotoxicity in the Neural Acute Assay, Shafer Lab (AID 2284069);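 further: active compounds lower the viability signal compared with DMSO wells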
# Procedure: CCTE_Shafer_MEA_acute assay is conducted using Axion Biosystems 48 well microelectrode array (MEA) plates and Maestro recording system. Each well of the MEA plate contains a grid of 16 microelectrodes embedded in the culture surface. Electrically active cells, such as neurons, can be cultured over the electrodes, and electrical activity in these cells can be recorded extracellularly. The spontaneous firing of neurons is captured from each electrode on a microsecond timescale providing both temporally and spatially precise data. […] The CCTE_Shafer_MEA_acute assay uses primary cultures of rat cortical neurons. As these cultures mature over time, neural networks develop functional activity and form cohesive networks in which electrical activity can be highly coordinated. Baseline 40-minute recordings are made on days post-plating 13 or 15, followed by a secondary 40-minute recording after chemical exposure.CCTE_Shafer_MEA_acute_AB is a component of the CCTE_Shafer_MEA_acute assay. It measures the resazurin reduction using fluorescence.Data from the assay component CCTE_Shafer_MEA_acute_AB was analyzed into 1 assay endpoint. This assay endpoint, CCTE_Shafer_MEA_acute_AB, was analyzed in the positive analysis fitting direction relative to DMSO as the negative control and baseline of activity. Using a type of viability reporter, loss-of-signal activity can be used to understand cell viability.
# Metabolic activity was determined using the CellTiter Blue (CTB) assay (Promega Cat. #8081), following the manufacturer's instructions with the following modifications. Following the removal of the 50 uL sample for the LDH assay, 450 uL of media was removed from each well and replaced with 200 uL of fresh media containing a 1:6 dilution of CTB reagent for the determination of metabolic activity. Fluorescence was measured in a Fluorostar Optima fluorimeter using an excitation wavelength of 544 nm and an emission wavelength of 590 nm.
Structure (SMILES),AC50,outcome
CC(C)N(C(=O)COc1nnc(C(F)(F)F)s1)c1ccc(F)cc1,inconclusive: 20 µM and inconclusive: 15 µM,
Nc1c(Cl)cc([N+](=O)[O-])cc1Cl,,inactive
CCOP(=S)(Oc1cnc(C(C)(C)C)nc1)OC(C)C (stereo not given),,inactive
COc1ccc(C(c2ccc(OC)cc2)C(Cl)(Cl)Cl)cc1,inconclusive: 0.221 µM,
CNC(=O)ON=C(SC)C(=O)N(C)C,inconclusive: 20 µM,
CCCCCCCCCC[N+](C)(C)CCCCCCCCCC,active: 20 µM,
CCOP(=S)(Oc1ccc([N+](=O)[O-])cc1)c1ccccc1 (stereo not given),,inactive
CC(C)N1C(=O)c2ccccc2NS1(=O)=O,inconclusive: 3.97 µM,
O=C(Cc1ccccc1)OCCc1ccccc1,inconclusive: 15 µM,
CC[C@H](C)[C@H]1O[C@]2(C=C[C@@H]1C)C[C@@H]1C[C@@H](C/C=C(\C)[C@@H](O[C@H]3C[C@H](OC)[C@@H](O[C@H]4C[C@H](OC)[C@@H](NC)[C@H](C)O4)[C@H](C)O3)[C@@H](C)/C=C/C=C3\CO[C@@H]4[C@H](O)C(C)=C[C@@H](C(=O)O1)[C@]34O)O2,active: 20 µM,inactive
CN/C(=N\[N+](=O)[O-])NCc1cnc(Cl)s1,inconclusive: 8.5 µM,
C=C(C)C(=O)[O][Sn]([CH2]CCC)([CH2]CCC)[CH2]CCC,active: 4.69 µM,
ClC1(Cl)C2(Cl)C3(Cl)C4(Cl)C(Cl)(Cl)C5(Cl)C3(Cl)C1(Cl)C5(Cl)C24Cl (stereo not given),,inactive
O=C(NC(=O)c1c(F)cccc1F)Nc1cc(Cl)c(OC(F)(F)C(F)F)c(Cl)c1,,inactive
Cc1c(COC(=O)[C@@H]2[C@H](/C=C(\Cl)C(F)(F)F)C2(C)C)cccc1-c1ccccc1,inconclusive: 3.54 µM,
O=[N+]([O-])c1cc(C(F)(F)F)c(Cl)c([N+](=O)[O-])c1Nc1ncc(C(F)(F)F)cc1Cl,,inactive
CCC(C)(C)c1ccc(O)c(C(C)(C)CC)c1,active: 35.4 µM,
Cc1ccc(N)cc1N,inconclusive: 20 µM,

Structure (SMILES),AC50,outcome
CCC(C)(CC)c1cc(NC(=O)c2c(OC)cccc2OC)on1,,inactive
CC1(C)C(C(=O)OC(C#N)c2cccc(Oc3ccccc3)c2)C1(C)C (stereo not given),inconclusive: 20 µM,
CC(C)COC(=O)c1ccccc1C(=O)OCC(C)C,,inactive
O=S1OCC2C(CO1)C1(Cl)C(Cl)=C(Cl)C2(Cl)C1(Cl)Cl (stereo not given),inconclusive: 15 µM,
CC(C)(C)c1ccc(CSc2cnn(C(C)(C)C)c(=O)c2Cl)cc1,inconclusive: 20 µM,
CC[C@H](C)[C@H]1O[C@]2(C=C[C@@H]1C)C[C@@H]1C[C@@H](C/C=C(\C)[C@@H](O[C@H]3C[C@H](OC)[C@@H](O[C@H]4C[C@H](OC)[C@@H](O)[C@H](C)O4)[C@H](C)O3)[C@@H](C)/C=C/C=C3\CO[C@@H]4[C@H](O)C(C)=C[C@@H](C(=O)O1)[C@]34O)O2 (tested in a mixture with another compound),inconclusive: 0.00299 µM,
O=C(Nc1ccccc1-c1ccc(Cl)cc1)c1cccnc1Cl,inconclusive: 15.8 µM,
CN(C)CCO,,inactive
CC(C)(c1ccccc1)c1ccc(O)c(C(C)(C)c2ccccc2)c1,,inactive
Oc1ccc(Cl)cc1Cc1ccccc1,,inactive
CC(Oc1ccc(Cl)cc1Cl)C(=O)O (stereo not given),,inactive
CCC[CH2][Sn]([Cl])([CH2]CCC)[CH2]CCC,active: 1.92 µM and active: 3.06 µM,
C=CCC1=C(C)C(OC(=O)C2C(C=C(C)C)C2(C)C)CC1=O (stereo not given),inconclusive: 20 µM,inactive
CC1(C)C(C=C(Cl)Cl)C1C(=O)OC(C#N)c1ccc(F)c(Oc2ccccc2)c1 (stereo not given),inconclusive: 15 µM,
N#Cc1cccnc1,inconclusive: 20 µM,
O=C(N[C@H]1CN2CCC1CC2)c1cc2ccoc2cn1,inconclusive: 20 µM,
CCCCC(CC)COP(=O)(Oc1ccccc1)Oc1ccccc1 (stereo not given),inconclusive: 6.4 µM,
COP(=O)(CCC(=O)NCO)OC,inconclusive: 15 µM,
